The values that follow come from article doi:10.1101/2024.05.17.594765.

No constants are given. Whether binding was seen depends on the method and setting. Some binding calls cover weakened binding; strength is not graded here. Where a sequence is shown, tags or fusion partners need not be part of it.

The assay has as its target T1, C-terminally Halo-tagged four-and-a-half LIM domains 3 (FHL3-Halo) (human), Q13643.
T1 chain: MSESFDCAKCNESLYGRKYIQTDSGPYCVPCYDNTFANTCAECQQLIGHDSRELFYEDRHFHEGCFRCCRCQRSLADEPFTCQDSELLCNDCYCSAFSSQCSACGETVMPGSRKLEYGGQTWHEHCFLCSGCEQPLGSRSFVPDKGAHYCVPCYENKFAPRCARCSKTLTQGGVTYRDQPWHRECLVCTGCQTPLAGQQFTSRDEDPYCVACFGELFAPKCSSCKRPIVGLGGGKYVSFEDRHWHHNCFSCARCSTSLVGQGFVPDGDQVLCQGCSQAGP
In words: TIRF microscopy, force reconstitution assay with purified proteins; myosin Va and myosin VI (or either alone) immobilised on a PEG-coated coverslip, fluorescent F-actin added, then 250 nM Halo-tagged LIM protein in MBOS (20 mM MOPS pH 7.4, 5 mM MgCl2, 0.1 mM EGTA, 50 mM KCl) + 1 mM ATP; room temperature; myosin force generation; both purified. The note with it: remark: other sources report otherwise.

B1: C-terminally Halo-tagged four-and-a-half LIM domains 3 (FHL3-Halo), Q13643 1-280 (protein)
chain: T1 chain
modifications: here or on the partner: Janelia Fluor 646 Halo-ligand conjugated to the Halo tag; Janelia Fluor 646 Halo-ligand conjugated to the Halo tag
Regarding B1, the binding entry is on record as “binds”.
